Measurements: the supplement of paper PMC8728848
This is one part of the list.

Assays:
Test in all cases: glycan array binding signal (z-score within array); higher = stronger binding
Conditions in all cases: glycan notation: IUPAC condensed, linker removed
[1] = target: Neu5Ac(a2-6)Gal(b1-4)GlcNAc(b1-2)Man(a1-3)[GlcNAc(b1-4)][Neu5Ac(a2-6)Gal(b1-4)GlcNAc(b1-2)Man(a1-6)]Man(b1-4)GlcNAc(b1-4)GlcNAc
How it was run: (§1)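 Glycan array binding is given as a within-array Z-score, which can be read as non-binding when negative. The arrays, 3228 of them, came from the Consortium for Functional Glycomics database and were retained only where the protein sequence was available. Z-scores were averaged across arrays of the same protein sequence at different concentrations or buffers and across linkers.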

[2] = target: Neu5Ac(a2-6)Gal(b1-4)GlcNAc(b1-2)Man(a1-3)[Man(a1-6)]Man(b1-4)GlcNAc(b1-4)GlcNAc
How it was run: as §1

[3] = target: Neu5Ac(a2-6)Gal(b1-4)GlcNAc(b1-2)Man(a1-3)[Neu5Ac(a2-3)Gal(b1-4)GlcNAc(b1-2)Man(a1-6)]Man(b1-4)GlcNAc(b1-4)GlcNAc
How it was run: as §1

[4] = target: Neu5Ac(a2-6)Gal(b1-4)GlcNAc(b1-2)Man(a1-3)[Neu5Ac(a2-6)Gal(b1-4)GlcNAc(b1-2)Man(a1-6)]Man(b1-4)GlcNAc(b1-4)GlcNAc
How it was run: as §1

[5] = target: Neu5Ac(a2-6)Gal(b1-4)GlcNAc(b1-2)Man(a1-3)[Neu5Ac(a2-6)Gal(b1-4)GlcNAc(b1-2)Man(a1-6)]Man(b1-4)GlcNAc(b1-4)[Fuc(a1-6)]GlcNAc
How it was run: as §1

[6] = target: Neu5Ac(a2-6)Gal(b1-4)GlcNAc(b1-2)Man(a1-6)Man(b1-4)GlcNAc(b1-4)GlcNAc
How it was run: as §1

[7] = target: Neu5Ac(a2-6)Gal(b1-4)GlcNAc(b1-2)Man(a1-6)[Gal(b1-4)GlcNAc(b1-2)Man(a1-3)]Man(b1-4)GlcNAc(b1-4)GlcNAc
How it was run: as §1

[8] = target: Neu5Ac(a2-6)Gal(b1-4)GlcNAc(b1-2)Man(a1-6)[GlcNAc(b1-2)Man(a1-3)]Man(b1-4)GlcNAc(b1-4)GlcNAc
How it was run: as §1

[9] = target: Neu5Ac(a2-6)Gal(b1-4)GlcNAc(b1-2)Man(a1-6)[Man(a1-3)]Man(b1-4)GlcNAc(b1-4)GlcNAc
How it was run: as §1

[10] = target: Neu5Ac(a2-6)Gal(b1-4)GlcNAc(b1-2)[Neu5Ac(a2-6)Gal(b1-4)GlcNAc(b1-4)]Man(a1-3)[GlcNAc(b1-4)][Neu5Ac(a2-6)Gal(b1-4)GlcNAc(b1-2)[Neu5Ac(a2-6)Gal(b1-4)GlcNAc(b1-6)]Man(a1-6)]Man(b1-4)GlcNAc(b1-4)GlcNAc
How it was run: as §1

[11] = target: Neu5Ac(a2-6)Gal(b1-4)GlcNAc(b1-2)[Neu5Ac(a2-6)Gal(b1-4)GlcNAc(b1-4)]Man(a1-3)[GlcNAc(b1-4)][Neu5Ac(a2-6)Gal(b1-4)GlcNAc(b1-4)Man(a1-6)]Man(b1-4)GlcNAc(b1-4)GlcNAc
How it was run: as §1

[12] = target: Neu5Ac(a2-6)Gal(b1-4)GlcNAc(b1-2)[Neu5Ac(a2-6)Gal(b1-4)GlcNAc(b1-6)]Man(a1-6)[Neu5Ac(a2-6)Gal(b1-4)GlcNAc(b1-2)Man(a1-3)][GlcNAc(b1-4)]Man(b1-4)GlcNAc(b1-4)GlcNAc
How it was run: as §1

[13] = target: Neu5Ac(a2-6)Gal(b1-4)GlcNAc(b1-3)Gal(b1-3)GlcNAc
How it was run: as §1

[14] = target: Neu5Ac(a2-6)Gal(b1-4)GlcNAc(b1-3)Gal(b1-4)GlcNAc
How it was run: as §1

[15] = target: Neu5Ac(a2-6)Gal(b1-4)GlcNAc(b1-3)Gal(b1-4)GlcNAc(b1-2)Man(a1-3)[Neu5Ac(a2-6)Gal(b1-4)GlcNAc(b1-3)Gal(b1-4)GlcNAc(b1-2)Man(a1-6)]GalNAc
How it was run: as §1

[16] = target: Neu5Ac(a2-6)Gal(b1-4)GlcNAc(b1-3)Gal(b1-4)GlcNAc(b1-3)Gal(b1-4)GlcNAc
How it was run: as §1

[17] = target: Neu5Ac(a2-6)Gal(b1-4)GlcNAc(b1-3)Gal(b1-4)GlcNAc(b1-3)Gal(b1-4)GlcNAc(b1-2)Man(a1-3)[Neu5Ac(a2-6)Gal(b1-4)GlcNAc(b1-3)Gal(b1-4)GlcNAc(b1-3)Gal(b1-4)GlcNAc(b1-2)Man(a1-6)]GalNAc
How it was run: as §1

[18] = target: Neu5Ac(a2-6)Gal(b1-4)GlcNAc(b1-3)Gal(b1-4)GlcNAc(b1-3)GalNAc
How it was run: as §1

[19] = target: Neu5Ac(a2-6)Gal(b1-4)GlcNAc(b1-3)Gal(b1-4)GlcNAc(b1-3)[Neu5Ac(a2-6)Gal(b1-4)GlcNAc(b1-3)Gal(b1-4)GlcNAc(b1-6)]GalNAc
How it was run: as §1

[20] = target: Neu5Ac(a2-6)Gal(b1-4)GlcNAc(b1-3)Gal(b1-4)GlcNAc(b1-6)[Gal(b1-3)]GalNAc
How it was run: as §1

[21] = target: Neu5Ac(a2-6)Gal(b1-4)GlcNAc(b1-3)Gal(b1-4)[Fuc(a1-3)]GlcNAc(b1-3)Gal(b1-4)[Fuc(a1-3)]GlcNAc
How it was run: as §1

[22] = target: Neu5Ac(a2-6)Gal(b1-4)GlcNAc(b1-3)GalNAc
How it was run: as §1

[23] = target: Neu5Ac(a2-6)Gal(b1-4)GlcNAc(b1-3)[Neu5Ac(a2-6)Gal(b1-4)GlcNAc(b1-6)]GalNAc
How it was run: as §1

[24] = target: Neu5Ac(a2-6)Gal(b1-4)GlcNAc(b1-6)GalNAc
How it was run: as §1

[25] = target: Neu5Ac(a2-6)Gal(b1-4)GlcNAc(b1-6)[Gal(b1-3)GlcNAc(b1-3)]Gal(b1-4)Glc
How it was run: as §1

[26] = target: Neu5Ac(a2-6)Gal(b1-4)GlcNAc(b1-6)[Gal(b1-3)]GalNAc
How it was run: as §1

[27] = target: Neu5Ac(a2-6)Gal(b1-4)GlcNAc6S
How it was run: as §1

Neu5Ac(a2-6)GalNAc = target: Neu5Ac(a2-6)GalNAc
How it was run: as §1

[28] = target: Neu5Ac(a2-6)GalNAc(b1-4)GlcNAc
How it was run: as §1

[29] = target: Neu5Ac(a2-6)GalNAc(b1-4)GlcNAc6S
How it was run: as §1

B1: R2-fiber (Pseudomonas aeruginosa), Q9S576 (protein)
chain: HHHHHHKVAKDLVVSLAYQVRTEDGVLVDESPVSAPLDYLHGHGSLISGLETALEGHEVGDKFDVAVGANDAYGQYDENLVQRVPKDVFMGVDELQVGMRFLAETDQGPVPVEITAVEDDHVVVDGNHMLAGQNLKFNVEVVAIREATEEELAHGHVHGAHDHHHDHDHDGCCGGHGHDHGHEHGGEGCCGGKGNGGCGCHENLYFQGVTAGMALAATDIPGLDASKLVSGVLAEQRLPVFARGLATAVSNSSDPNTATVPLMLTNHANGPVAGRYFYIQSMFYPDQNGNASQIATSYNATSEMYVRVSYAANPSIREWLPWQRCDIGGSFTKEADGELPGGVNLDSMVTSGWWSQSFTAQAASGANYPIVRAGLLHVYAASSNFIYQTYQAYDGESFYFRCRHSNTWFPWRRMWHGGDFNPSDYLLKSGFYWNALPGKPATFPPSAHNHDVGQLTSGILPLARGGVGSNTAAGARSTIGAGVPATASLGASGWWRDNDTGLIRQWGQVTCPADADASITFPIPFPTLCLGGYANQTSAFHPGTDASTGFRGATTTTAVIRNGYFAQAVLSWEAFGR
B1 was tested, and the “glycan array binding signal (z-score)” value [1] was -0.507, the “glycan array binding signal (z-score)” value [2] was -0.154 and the “glycan array binding signal (z-score)” value [3] was -0.866. For the same binder, the “glycan array binding signal (z-score)” value [4] was -0.371, the “glycan array binding signal (z-score)” value [5] was -0.676 and the “glycan array binding signal (z-score)” value [6] was -0.664. For the same binder, the “glycan array binding signal (z-score)” value [7] was -0.838, the “glycan array binding signal (z-score)” value [8] was 0.361 and the “glycan array binding signal (z-score)” value [9] was -0.125. For the same binder, the “glycan array binding signal (z-score)” value [10] was -0.74, the “glycan array binding signal (z-score)” value [11] was 0.438 and the “glycan array binding signal (z-score)” value [12] was -0.557. For the same binder, the “glycan array binding signal (z-score)” value [13] was -1.21, the “glycan array binding signal (z-score)” value [14] was -0.035 and the “glycan array binding signal (z-score)” value [15] was -0.854. For the same binder, the “glycan array binding signal (z-score)” value [16] was -0.036, the “glycan array binding signal (z-score)” value [17] was -0.064 and the “glycan array binding signal (z-score)” value [18] was 1.44. The “glycan array binding signal (z-score)” value [19] was -0.443, the “glycan array binding signal (z-score)” value [20] was -0.196 and the “glycan array binding signal (z-score)” value [21] was -0.169. For the same binder, the “glycan array binding signal (z-score)” value [22] was -0.084, the “glycan array binding signal (z-score)” value [23] was -0.127 and the “glycan array binding signal (z-score)” value [24] was -0.606. For the same binder, the “glycan array binding signal (z-score)” value [25] was 0.031, the “glycan array binding signal (z-score)” value [26] was 0.265 and the “glycan array binding signal (z-score)” value [27] was -0.196. For the same binder, the “glycan array binding signal (z-score)” value (Neu5Ac(a2-6)GalNAc) was -0.423, the “glycan array binding signal (z-score)” value [28] was 0.449 and the “glycan array binding signal (z-score)” value [29] was -0.47.
